Assay results: PMC3762332
For at least one entry, the source does not settle the construct or the ends of the probe. For part of these data: Protein sequences can lack the tags named with them.

Protein sequences, listed by entry. Tags and fused reporters are not part of them. Lines headed by an entry give the natural chain unless they say otherwise; changes in a name come on top.
UniProt Q9BWM5: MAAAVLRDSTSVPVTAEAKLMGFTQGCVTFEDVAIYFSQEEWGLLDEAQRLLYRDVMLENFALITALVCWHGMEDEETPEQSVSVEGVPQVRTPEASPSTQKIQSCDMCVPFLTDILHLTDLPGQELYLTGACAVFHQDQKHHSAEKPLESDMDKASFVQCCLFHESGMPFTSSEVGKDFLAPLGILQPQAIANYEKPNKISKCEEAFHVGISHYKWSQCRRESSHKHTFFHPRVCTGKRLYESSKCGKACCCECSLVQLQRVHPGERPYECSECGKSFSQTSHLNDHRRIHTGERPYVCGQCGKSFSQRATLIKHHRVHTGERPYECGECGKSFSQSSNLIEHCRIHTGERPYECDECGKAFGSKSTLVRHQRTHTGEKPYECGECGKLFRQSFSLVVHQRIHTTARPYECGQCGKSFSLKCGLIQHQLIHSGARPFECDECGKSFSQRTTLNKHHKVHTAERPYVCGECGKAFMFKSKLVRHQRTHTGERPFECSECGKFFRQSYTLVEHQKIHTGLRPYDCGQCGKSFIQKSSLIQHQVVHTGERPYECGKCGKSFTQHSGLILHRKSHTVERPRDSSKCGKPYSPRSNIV
UniProt P37231: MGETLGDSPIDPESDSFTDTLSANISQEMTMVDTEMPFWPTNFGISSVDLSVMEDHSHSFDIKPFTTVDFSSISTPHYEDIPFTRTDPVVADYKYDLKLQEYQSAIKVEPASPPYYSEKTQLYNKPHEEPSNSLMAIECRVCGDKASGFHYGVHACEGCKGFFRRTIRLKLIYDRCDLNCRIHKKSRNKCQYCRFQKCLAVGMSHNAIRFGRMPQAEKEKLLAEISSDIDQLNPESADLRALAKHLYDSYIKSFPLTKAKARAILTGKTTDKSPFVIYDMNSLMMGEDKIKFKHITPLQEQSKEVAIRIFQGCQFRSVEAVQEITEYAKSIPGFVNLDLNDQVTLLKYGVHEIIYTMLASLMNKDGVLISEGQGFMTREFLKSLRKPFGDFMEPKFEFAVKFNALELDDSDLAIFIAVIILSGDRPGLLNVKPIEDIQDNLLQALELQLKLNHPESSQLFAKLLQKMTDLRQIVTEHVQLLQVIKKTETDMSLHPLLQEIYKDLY
UniProt Q8NC26: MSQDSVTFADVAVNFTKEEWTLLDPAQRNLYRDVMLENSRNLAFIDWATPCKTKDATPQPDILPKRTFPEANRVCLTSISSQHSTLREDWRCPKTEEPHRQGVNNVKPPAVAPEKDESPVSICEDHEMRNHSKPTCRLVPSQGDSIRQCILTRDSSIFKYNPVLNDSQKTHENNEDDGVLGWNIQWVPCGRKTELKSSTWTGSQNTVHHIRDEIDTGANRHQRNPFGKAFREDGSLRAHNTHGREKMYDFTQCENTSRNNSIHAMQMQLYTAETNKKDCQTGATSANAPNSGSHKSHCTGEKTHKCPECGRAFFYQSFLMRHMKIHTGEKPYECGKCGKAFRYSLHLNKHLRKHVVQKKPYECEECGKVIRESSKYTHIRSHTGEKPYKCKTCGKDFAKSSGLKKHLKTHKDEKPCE
UniProt P43694: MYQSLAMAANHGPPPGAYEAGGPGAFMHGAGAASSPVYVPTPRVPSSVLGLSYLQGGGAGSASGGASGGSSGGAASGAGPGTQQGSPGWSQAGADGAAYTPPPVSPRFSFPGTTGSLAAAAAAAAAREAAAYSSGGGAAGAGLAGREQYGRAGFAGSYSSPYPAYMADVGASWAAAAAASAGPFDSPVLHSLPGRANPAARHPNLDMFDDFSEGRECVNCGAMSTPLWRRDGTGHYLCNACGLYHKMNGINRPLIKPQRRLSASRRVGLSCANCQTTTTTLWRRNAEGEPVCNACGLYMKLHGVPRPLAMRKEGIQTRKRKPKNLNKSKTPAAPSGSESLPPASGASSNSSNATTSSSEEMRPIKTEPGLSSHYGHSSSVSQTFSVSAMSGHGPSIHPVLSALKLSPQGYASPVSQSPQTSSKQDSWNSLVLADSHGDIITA
UniProt P20719: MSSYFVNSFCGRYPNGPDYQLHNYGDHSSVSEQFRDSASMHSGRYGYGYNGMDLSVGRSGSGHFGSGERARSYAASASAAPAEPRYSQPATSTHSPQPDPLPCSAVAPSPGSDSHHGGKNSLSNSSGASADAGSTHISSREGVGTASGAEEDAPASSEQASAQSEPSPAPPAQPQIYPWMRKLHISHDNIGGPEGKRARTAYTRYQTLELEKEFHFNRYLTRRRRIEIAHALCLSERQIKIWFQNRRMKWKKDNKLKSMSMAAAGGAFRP
UniProt P19793: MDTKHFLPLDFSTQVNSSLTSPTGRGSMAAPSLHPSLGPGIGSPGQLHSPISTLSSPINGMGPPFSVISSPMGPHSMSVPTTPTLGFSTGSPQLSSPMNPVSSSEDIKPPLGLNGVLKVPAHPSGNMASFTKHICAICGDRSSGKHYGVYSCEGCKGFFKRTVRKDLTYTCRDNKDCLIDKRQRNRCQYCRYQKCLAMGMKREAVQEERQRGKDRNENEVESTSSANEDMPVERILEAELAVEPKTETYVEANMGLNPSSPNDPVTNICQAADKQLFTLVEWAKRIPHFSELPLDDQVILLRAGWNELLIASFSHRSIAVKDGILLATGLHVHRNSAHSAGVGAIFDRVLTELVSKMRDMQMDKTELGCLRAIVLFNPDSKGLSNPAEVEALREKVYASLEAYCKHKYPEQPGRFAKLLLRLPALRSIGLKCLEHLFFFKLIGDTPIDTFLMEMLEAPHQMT
UniProt P05549: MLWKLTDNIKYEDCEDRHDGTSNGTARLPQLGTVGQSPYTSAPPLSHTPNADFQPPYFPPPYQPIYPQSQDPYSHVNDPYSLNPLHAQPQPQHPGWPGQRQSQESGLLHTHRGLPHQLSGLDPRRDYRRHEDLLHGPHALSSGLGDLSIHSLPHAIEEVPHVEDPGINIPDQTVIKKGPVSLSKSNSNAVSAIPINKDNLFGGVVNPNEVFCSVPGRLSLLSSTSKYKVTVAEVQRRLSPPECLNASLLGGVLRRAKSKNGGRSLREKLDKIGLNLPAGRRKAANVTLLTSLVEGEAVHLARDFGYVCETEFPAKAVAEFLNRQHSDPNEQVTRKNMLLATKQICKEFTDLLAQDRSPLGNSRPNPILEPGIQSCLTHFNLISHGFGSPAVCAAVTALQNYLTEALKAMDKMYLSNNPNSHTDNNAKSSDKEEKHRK
UniProt O00716: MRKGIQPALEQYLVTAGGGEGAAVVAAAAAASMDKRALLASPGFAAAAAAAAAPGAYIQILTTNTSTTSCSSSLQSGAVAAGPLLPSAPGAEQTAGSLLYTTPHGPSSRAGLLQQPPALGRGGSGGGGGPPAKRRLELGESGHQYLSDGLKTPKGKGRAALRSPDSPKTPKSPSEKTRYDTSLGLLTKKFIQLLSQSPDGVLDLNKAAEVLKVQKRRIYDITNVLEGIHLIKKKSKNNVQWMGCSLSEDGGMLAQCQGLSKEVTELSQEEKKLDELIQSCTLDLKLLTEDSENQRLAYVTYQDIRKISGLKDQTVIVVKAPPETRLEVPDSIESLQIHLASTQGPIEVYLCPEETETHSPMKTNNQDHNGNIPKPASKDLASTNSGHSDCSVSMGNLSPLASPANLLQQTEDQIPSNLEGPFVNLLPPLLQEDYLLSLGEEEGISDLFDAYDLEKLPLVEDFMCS
UniProt Q8IW36: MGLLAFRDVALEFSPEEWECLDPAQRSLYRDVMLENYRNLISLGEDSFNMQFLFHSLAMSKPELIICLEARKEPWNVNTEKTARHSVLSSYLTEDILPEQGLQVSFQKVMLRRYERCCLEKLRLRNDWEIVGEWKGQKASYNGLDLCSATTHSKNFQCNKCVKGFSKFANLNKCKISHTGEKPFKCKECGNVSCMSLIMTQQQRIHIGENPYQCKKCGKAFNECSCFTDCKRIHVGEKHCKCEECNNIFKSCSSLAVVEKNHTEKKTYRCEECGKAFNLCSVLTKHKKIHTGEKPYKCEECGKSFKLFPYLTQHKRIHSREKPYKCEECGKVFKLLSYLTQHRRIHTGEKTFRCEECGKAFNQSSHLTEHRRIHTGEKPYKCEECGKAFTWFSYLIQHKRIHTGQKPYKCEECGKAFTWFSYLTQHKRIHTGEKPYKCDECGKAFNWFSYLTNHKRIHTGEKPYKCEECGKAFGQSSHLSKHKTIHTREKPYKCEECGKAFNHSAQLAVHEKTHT

Experiments:
Test in all cases: protein microarray
Settings in all cases: 10-fold cold unmethylated competitor; 5mC at CpG (SssI, both strands); recombinant protein; protein details: GST (N-terminal); label: Cy5
SCAPER (Homo sapiens) = target: T1, SCAPER (Homo sapiens) (UniProt Q9BY12)
T1 sequence (looked up, limits assumed): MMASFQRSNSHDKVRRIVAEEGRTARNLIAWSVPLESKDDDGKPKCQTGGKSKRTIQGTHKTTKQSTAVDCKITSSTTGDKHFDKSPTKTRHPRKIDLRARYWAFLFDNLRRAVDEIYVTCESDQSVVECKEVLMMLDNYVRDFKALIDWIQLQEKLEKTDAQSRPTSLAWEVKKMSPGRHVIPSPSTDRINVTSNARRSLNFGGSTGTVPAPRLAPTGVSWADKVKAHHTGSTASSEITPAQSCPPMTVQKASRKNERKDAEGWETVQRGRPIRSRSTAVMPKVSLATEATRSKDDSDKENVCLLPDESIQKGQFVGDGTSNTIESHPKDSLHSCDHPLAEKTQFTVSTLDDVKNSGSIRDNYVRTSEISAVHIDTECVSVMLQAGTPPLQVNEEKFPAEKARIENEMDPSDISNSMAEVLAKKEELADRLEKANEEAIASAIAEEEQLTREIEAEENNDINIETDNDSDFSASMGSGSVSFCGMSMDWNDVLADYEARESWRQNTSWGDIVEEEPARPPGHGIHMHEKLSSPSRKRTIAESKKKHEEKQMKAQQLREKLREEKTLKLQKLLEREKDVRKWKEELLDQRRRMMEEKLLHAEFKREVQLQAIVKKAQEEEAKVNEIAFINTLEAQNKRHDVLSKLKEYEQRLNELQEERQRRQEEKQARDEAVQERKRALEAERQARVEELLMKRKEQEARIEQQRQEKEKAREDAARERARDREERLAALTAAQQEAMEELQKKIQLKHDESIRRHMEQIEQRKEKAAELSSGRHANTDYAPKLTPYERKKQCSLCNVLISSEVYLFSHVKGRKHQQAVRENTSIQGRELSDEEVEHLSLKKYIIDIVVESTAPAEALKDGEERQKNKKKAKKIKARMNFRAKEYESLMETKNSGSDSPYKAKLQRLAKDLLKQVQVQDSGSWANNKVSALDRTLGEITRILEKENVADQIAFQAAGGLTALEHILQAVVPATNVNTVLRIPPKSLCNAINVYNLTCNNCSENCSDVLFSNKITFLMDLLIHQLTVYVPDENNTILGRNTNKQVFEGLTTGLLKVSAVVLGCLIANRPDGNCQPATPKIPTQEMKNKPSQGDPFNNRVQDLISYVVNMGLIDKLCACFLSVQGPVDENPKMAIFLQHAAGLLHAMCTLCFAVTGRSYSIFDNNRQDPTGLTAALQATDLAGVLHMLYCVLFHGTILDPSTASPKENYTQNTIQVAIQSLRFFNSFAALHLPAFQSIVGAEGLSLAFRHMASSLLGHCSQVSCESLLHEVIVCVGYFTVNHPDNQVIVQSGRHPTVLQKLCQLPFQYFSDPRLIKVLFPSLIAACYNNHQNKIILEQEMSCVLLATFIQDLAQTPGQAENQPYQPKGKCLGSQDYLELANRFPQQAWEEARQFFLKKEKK

ZNF416 (Homo sapiens) = ZNF416 (Homo sapiens) (UniProt Q9BWM5)
RNF138 (Homo sapiens) = target: T2, RNF138 (Homo sapiens) (UniProt Q8WVD3)
T2 sequence (looked up, limits assumed): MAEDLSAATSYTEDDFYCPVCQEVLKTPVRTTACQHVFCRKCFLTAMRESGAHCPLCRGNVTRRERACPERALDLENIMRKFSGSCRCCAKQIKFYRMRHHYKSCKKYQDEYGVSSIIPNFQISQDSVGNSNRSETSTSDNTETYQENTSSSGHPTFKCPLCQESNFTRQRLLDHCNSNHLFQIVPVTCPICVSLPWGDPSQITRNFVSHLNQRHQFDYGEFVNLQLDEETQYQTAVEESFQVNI

PPARG (Homo sapiens) = PPARG (Homo sapiens) (UniProt P37231)
ZNF114 (Homo sapiens) = ZNF114 (Homo sapiens) (UniProt Q8NC26)
GATA4 (Homo sapiens) = GATA4 (Homo sapiens) (UniProt P43694)
HOXA5 (Homo sapiens) = HOXA5 (Homo sapiens) (UniProt P20719)
RXRA (Homo sapiens) = RXRA (Homo sapiens) (UniProt P19793)
SMAD4 (Homo sapiens) = target: T3, SMAD4 (Homo sapiens) (UniProt Q13485)
T3 sequence (looked up, limits assumed): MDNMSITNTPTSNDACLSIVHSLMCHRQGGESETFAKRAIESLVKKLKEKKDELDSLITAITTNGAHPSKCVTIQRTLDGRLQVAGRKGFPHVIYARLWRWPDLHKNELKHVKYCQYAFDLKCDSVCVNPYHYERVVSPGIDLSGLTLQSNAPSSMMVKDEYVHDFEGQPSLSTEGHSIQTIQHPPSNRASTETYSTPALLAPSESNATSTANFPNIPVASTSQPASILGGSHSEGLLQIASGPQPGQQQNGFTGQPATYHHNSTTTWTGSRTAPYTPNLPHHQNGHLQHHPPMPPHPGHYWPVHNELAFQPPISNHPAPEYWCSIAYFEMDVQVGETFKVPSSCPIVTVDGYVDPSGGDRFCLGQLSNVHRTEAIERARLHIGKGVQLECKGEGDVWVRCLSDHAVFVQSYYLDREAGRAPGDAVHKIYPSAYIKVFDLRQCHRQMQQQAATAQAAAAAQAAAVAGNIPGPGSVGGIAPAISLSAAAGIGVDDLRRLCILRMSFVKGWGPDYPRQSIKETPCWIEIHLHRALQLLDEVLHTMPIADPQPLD

TFAP2A (Homo sapiens) = TFAP2A (Homo sapiens) (UniProt P05549)
E2F3 (Homo sapiens) = E2F3 (Homo sapiens) (UniProt O00716)
NRF1 (Homo sapiens) = target: T4, NRF1 (Homo sapiens) (UniProt Q16656)
T4 sequence (looked up, limits assumed): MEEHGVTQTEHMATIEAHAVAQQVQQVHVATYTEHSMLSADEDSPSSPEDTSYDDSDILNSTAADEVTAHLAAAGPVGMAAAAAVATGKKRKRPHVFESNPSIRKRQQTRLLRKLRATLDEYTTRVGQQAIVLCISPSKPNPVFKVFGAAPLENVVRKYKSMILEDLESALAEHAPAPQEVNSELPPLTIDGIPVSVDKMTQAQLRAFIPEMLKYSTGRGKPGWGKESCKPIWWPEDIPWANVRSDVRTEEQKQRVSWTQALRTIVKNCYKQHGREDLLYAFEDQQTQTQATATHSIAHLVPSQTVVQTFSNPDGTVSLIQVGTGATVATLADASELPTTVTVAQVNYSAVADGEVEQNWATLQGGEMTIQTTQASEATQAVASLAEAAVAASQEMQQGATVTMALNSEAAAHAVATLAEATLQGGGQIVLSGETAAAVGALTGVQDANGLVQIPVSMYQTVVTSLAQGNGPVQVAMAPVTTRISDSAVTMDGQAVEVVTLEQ

ZNF695 (Homo sapiens) = ZNF695 (Homo sapiens) (UniProt Q8IW36)
ZCCHC7 (Homo sapiens) = target: T5, ZCCHC7 (Homo sapiens) (UniProt Q8N3Z6)
T5 sequence (looked up, limits assumed): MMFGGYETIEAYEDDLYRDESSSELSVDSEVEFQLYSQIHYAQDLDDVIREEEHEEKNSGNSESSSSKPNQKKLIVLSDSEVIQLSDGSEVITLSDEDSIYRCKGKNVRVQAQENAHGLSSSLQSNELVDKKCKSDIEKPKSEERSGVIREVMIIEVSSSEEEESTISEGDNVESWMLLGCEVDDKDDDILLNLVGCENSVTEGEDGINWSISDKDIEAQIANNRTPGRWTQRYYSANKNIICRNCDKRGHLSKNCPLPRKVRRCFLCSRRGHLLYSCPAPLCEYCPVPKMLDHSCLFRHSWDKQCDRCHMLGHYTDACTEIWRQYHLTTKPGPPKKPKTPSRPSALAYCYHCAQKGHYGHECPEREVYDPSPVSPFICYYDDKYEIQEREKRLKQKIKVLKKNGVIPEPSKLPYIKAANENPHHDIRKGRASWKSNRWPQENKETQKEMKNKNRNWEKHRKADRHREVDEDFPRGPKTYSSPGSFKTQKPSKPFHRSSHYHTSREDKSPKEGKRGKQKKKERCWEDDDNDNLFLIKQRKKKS

BCL3 (Homo sapiens) = target: T6, BCL3 (Homo sapiens) (UniProt P20749)
T6 sequence (looked up, limits assumed): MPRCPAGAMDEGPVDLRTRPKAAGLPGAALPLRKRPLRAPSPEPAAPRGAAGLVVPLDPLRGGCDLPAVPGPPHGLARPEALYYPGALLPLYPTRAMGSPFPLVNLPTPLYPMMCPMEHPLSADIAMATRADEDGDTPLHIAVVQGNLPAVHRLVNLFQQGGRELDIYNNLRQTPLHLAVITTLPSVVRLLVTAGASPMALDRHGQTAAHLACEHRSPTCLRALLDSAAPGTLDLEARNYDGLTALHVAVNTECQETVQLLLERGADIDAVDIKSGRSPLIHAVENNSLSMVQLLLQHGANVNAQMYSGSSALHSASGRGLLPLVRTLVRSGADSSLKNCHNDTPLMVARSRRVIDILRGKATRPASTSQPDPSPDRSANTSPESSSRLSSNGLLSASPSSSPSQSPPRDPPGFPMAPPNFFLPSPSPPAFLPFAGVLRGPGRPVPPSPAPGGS

Measured: binding result

ACGATTAGCCCACGATTAGCCCTATAGTGAGTGCTATTA (double strand) [M414]
binds: SCAPER (Homo sapiens) | ZNF416 (Homo sapiens) | RNF138 (Homo sapiens) | PPARG (Homo sapiens) | ZNF114 (Homo sapiens) | GATA4 (Homo sapiens) | HOXA5 (Homo sapiens) | RXRA (Homo sapiens) | SMAD4 (Homo sapiens)

AGGGTCGCGTGAGTATAAAAGCCGGTTTTCGGGGAAAAGGGTCGCGTGAGTATAAAAGCCGGTTTTCGGGGCCCTATAGTGAGTGCTATTA (double strand) [M41]
binds: SCAPER (Homo sapiens) | ZNF416 (Homo sapiens) | TFAP2A (Homo sapiens) | E2F3 (Homo sapiens) | NRF1 (Homo sapiens) | HOXA5 (Homo sapiens) | ZNF695 (Homo sapiens)

CCCGTGACCAAACCCGTGACCCCCTATAGTGAGTGCTATTA (double strand) [M32]
binds: SCAPER (Homo sapiens) | ZNF416 (Homo sapiens) | RNF138 (Homo sapiens) | TFAP2A (Homo sapiens) | E2F3 (Homo sapiens) | PPARG (Homo sapiens) | ZNF114 (Homo sapiens) | GATA4 (Homo sapiens) | NRF1 (Homo sapiens) | HOXA5 (Homo sapiens) | RXRA (Homo sapiens) | ZCCHC7 (Homo sapiens) | ZNF695 (Homo sapiens) | SMAD4 (Homo sapiens)

CCCTCCCGAAACCCTCCCGCCCTATAGTGAGTGCTATTA (double strand) [M31]
binds: SCAPER (Homo sapiens) | ZNF416 (Homo sapiens) | RNF138 (Homo sapiens) | BCL3 (Homo sapiens) | E2F3 (Homo sapiens) | PPARG (Homo sapiens) | ZNF114 (Homo sapiens) | GATA4 (Homo sapiens) | HOXA5 (Homo sapiens) | RXRA (Homo sapiens) | ZNF695 (Homo sapiens) | SMAD4 (Homo sapiens)

CGGGAGCTTTCGGGAGCCCCTATAGTGAGTGCTATTA (double strand) [M306]
binds: SCAPER (Homo sapiens) | ZNF416 (Homo sapiens) | RNF138 (Homo sapiens) | TFAP2A (Homo sapiens) | E2F3 (Homo sapiens) | PPARG (Homo sapiens) | ZNF114 (Homo sapiens) | GATA4 (Homo sapiens) | HOXA5 (Homo sapiens) | RXRA (Homo sapiens) | ZCCHC7 (Homo sapiens) | ZNF695 (Homo sapiens)

CGGGCTCAAACGGGCTCCCCTATAGTGAGTGCTATTA (double strand) [M310]
binds: SCAPER (Homo sapiens) | ZNF416 (Homo sapiens) | RNF138 (Homo sapiens) | BCL3 (Homo sapiens) | TFAP2A (Homo sapiens) | PPARG (Homo sapiens) | ZNF114 (Homo sapiens) | GATA4 (Homo sapiens) | NRF1 (Homo sapiens) | HOXA5 (Homo sapiens) | RXRA (Homo sapiens) | ZCCHC7 (Homo sapiens) | ZNF695 (Homo sapiens)

GGCGCCCTTTGGCGCCCCCCTATAGTGAGTGCTATTA (double strand) [M292]
binds: SCAPER (Homo sapiens) | ZNF416 (Homo sapiens) | RNF138 (Homo sapiens) | TFAP2A (Homo sapiens) | E2F3 (Homo sapiens) | PPARG (Homo sapiens) | ZNF114 (Homo sapiens) | GATA4 (Homo sapiens) | HOXA5 (Homo sapiens) | RXRA (Homo sapiens) | ZNF695 (Homo sapiens)

TTTCGCGCAAATTTCGCGCCCCTATAGTGAGTGCTATTA (double strand) [M1]
binds: SCAPER (Homo sapiens) | ZNF416 (Homo sapiens) | TFAP2A (Homo sapiens) | E2F3 (Homo sapiens) | ZNF114 (Homo sapiens) | NRF1 (Homo sapiens) | HOXA5 (Homo sapiens) | RXRA (Homo sapiens) | ZNF695 (Homo sapiens)
